“And” between values parts separate entries of the source, which are not always exact repeats. Identical values can stand only once. About 17,000 (5.5%) of roughly 310,000 compounds were called active. Inconclusive results, whose numbers are uncertain, are shown with a selection of clear calls. Calls follow the shape of the dose curve; as a rule, active = well fitted inhibition curve with a large enough effect; inconclusive = small, poorly fitted or top-dose-only effect, or effect the other way; inactive = no such curve, though single readings can be large or run the other way. A potency beside an inconclusive call is a rough fit, not a confirmed value.
target: Nuclear receptor ROR-gamma (Mus musculus) (UniProt P51450); assay: qHTS for inhibitors of ROR gamma transcriptional activity; conditions: Drosophila S2 Gal4-RORgamma UAS-luciferase reporter, 20 h; activity change, negative = inhibition: at 53.6 µM (top of the series); also: nearly all actives have a fitted effect of over 60% in size
Procedure, shortened: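 In this cell-based reporter format, copper sulfate (700 uM final) drives Gal4–ROR gamma fusion expression from a metallothionein promoter in Drosophila Schneider cells; compounds preincubated 1 hr, reporter read after 20 hr at ambient temperature.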
% is scaled to controls: 0 for no effect and ±100 for the full control effect; potency is read from the fitted curve at half-maximal effect.

Sequences of proteins named here, by UniProt entry; tags and fusion partners are left off. A change or cut given only in a name is not applied to a line headed by its entry.
UniProt P51450: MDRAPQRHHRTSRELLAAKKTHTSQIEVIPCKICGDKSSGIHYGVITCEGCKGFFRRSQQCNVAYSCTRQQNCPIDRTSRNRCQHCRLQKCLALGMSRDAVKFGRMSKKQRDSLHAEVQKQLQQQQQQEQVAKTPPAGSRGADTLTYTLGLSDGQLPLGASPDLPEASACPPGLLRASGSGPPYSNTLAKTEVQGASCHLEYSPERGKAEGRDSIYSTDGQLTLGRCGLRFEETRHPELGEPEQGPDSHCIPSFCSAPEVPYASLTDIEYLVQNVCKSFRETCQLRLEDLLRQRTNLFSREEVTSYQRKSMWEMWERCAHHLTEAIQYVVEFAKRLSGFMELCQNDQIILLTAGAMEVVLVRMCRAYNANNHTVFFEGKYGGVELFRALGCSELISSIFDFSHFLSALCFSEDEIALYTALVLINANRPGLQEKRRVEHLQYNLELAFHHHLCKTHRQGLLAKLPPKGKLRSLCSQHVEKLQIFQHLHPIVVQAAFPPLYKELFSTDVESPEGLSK

SMILES	Potency	activity change, negative = inhibition
CCC(C)Nc1nc(CN2CCOCC2)nc2sc3c(c12)CCC3 (stereo not drawn)	active: 11.2 µM	
CCN(CC)S(=O)(=O)c1cc(NC(=O)C(C)N2CCN(Cc3ccc4c(c3)OCO4)CC2)ccc1C (stereo not drawn)	inactive	
CCCn1c(NC(=O)c2ccc(C)cc2)nc2ccccc21	active: 2.24 µM	
CC(C)COCc1ccc(O)c2ncccc12	active: 0.708 µM	
Cc1nc(C(=O)Nc2ccc(Cl)cc2Cl)nn1-c1cc(OC(C)C)c(Cl)cc1Cl	inactive	
COc1ccc(S(=O)(=O)N[C@@H](C)C(=O)OCC(=O)Nc2cc3oc4ccccc4c3cc2OC)cc1	inconclusive: 22.4 µM [inhibitor, single point]	
CC(C)(C)c1ccc(C(=O)NCC(=O)N2CCCCCC2)cc1	inconclusive: 10 µM [activator, partial curve]	
CCOC(=O)C1(Cc2cccc(OC)c2)CCN(Cc2csc(C(C)=O)c2)CC1	inconclusive: 12.6 µM [activator, single point]	
CSc1ccc(/C=C/C(=O)c2ccc(NC(=O)C(C)C)cc2)cc1	inconclusive: 12.6 µM [inhibitor, single point]	
O=C(NCCc1ccccc1)c1cnc2ccccn2c1=O	inconclusive: 35.5 µM [inhibitor, single point]	
CC(C)(C)C(=O)Nc1cccc(-c2nnc(-c3cccc(NC(=O)C(C)(C)C)c3)o2)c1	inconclusive: 3.16 µM [activator, full curve, poor fit]	
CCC(C(=O)NC1CCCCC1)n1c(SCc2cccc(F)c2)nc2ccncc21 (stereo not drawn)	inconclusive: 17.8 µM [inhibitor, single point]	
Cc1nc2nc(SCc3nc4ccccc4[nH]3)[nH]c2cc1Br	inactive	
COC(=O)N/N=C1\CCCc2c(C)cc(C)cc21	inactive	
CC(Oc1ccc(F)cc1)C(=O)Nc1ccccc1N1CCCCC1 (stereo not drawn)	inconclusive: 35.5 µM [inhibitor, single point]	
CC(=C/C(=O)O)/C=C/c1ccco1	inconclusive: 31.6 µM [inhibitor, single point]	
CC(=O)Oc1ccccc1-n1c(C)nc(=O)c(-c2ccccc2)c1C	inactive	
CC(N=Cc1cc([N+](=O)[O-])ccc1O)c1ccccc1 (stereo not drawn)	inconclusive: 15.8 µM [inhibitor, single point]	
Cc1cccc(CN2CCN(C(c3ccccc3)c3ccc(Cl)cc3)CC2)c1 (stereo not drawn)	inconclusive: 8.91 µM [activator, partial curve]	
Cn1cnnc1Sc1c([N+](=O)[O-])ncn1C	inconclusive: 35.5 µM [inhibitor, single point]	
COCCN(CCOC)S(=O)(=O)c1ccc(C(=O)Nc2c(C)n(C)n(-c3ccccc3)c2=O)cc1	inactive	
COc1cc(O)c(C(CC(=O)N2CCOCC2)c2ccc3c(c2)OCO3)c(OC)c1 (stereo not drawn)	inactive	
Nc1ccc(C(=O)N/N=C\C=C\c2cccc([N+](=O)[O-])c2)cc1	inconclusive: 22.4 µM [inhibitor, single point]	

SMILES	Potency	activity change, negative = inhibition
O=C(Nc1ccc(C(=O)NCc2ccccc2)cc1)C1=CSCCO1	inconclusive: 17.8 µM [activator, single point]	
O=[N+]([O-])c1cc2c(c(CSc3nnnn3-c3ccc(O)cc3)c1)OCOC2	inconclusive: 20 µM [activator, single point]	
O=C(C[n+]1ccccc1)Nc1c(Cl)cc(Cl)cc1Cl	inconclusive: 22.4 µM [inhibitor, single point]	
C#CCNC(=O)/C=C/c1ccc(C)cc1	inconclusive: 35.5 µM [inhibitor, single point]	
COC(=O)CNC(c1ccccc1)c1cc(Br)ccc1NS(=O)(=O)c1ccc(C)cc1 (stereo not drawn)	inconclusive: 17.8 µM [activator, single point]	
COc1ccc(OC)c(NC(=O)c2ccc3c(c2)OCO3)c1	inconclusive: 0.1 µM [inhibitor, single point]	
CCc1nc(SCC#N)c(C#N)cc1C	inconclusive: 17.8 µM [activator, single point]	
COCc1cc(C)nc(OCC(=O)N/N=C/c2ccccc2O)c1C#N	active: 15.8 µM	
COc1ccc(/C=C(\NC(=O)c2cccs2)C(=O)NN)cc1OC	inactive	
O=C(NCCc1csc(-c2cccnc2)n1)c1cccs1	inconclusive: 12.6 µM [activator, partial curve]	
CN(C)S(=O)(=O)c1cccc(NC(=O)Cc2ccc(Cl)cc2)c1	inconclusive: 14.1 µM [activator, partial curve]	
O=C(c1cc(COc2c(F)cccc2F)on1)N1CCC(c2ccncc2)CC1	inconclusive: 28.2 µM [inhibitor, single point]	
COc1ccc(NS(=O)(=O)c2ccc(S(=O)(=O)N3CCCC3)cc2)cc1Cl	inactive	
CCN(C1CCCCC1)S(=O)(=O)c1ccc(S(=O)(=O)NCCc2ccncc2)cc1	inconclusive: 25.1 µM [inhibitor, single point]	
CN(C)c1ccc(/C=N/c2cc(-c3ccccc3)nn2-c2ccccc2)cc1	inconclusive: 2.82 µM [activator, full curve, poor fit]	
COC(=O)C(c1ccc(OC)c(OC)c1)C1c2ccccc2C=C(C)N1C(=O)OC (stereo not drawn)	inactive	
COc1cc2ccccc2cc1C(=O)Nc1ccc(S(=O)(=O)Nc2cc(C)on2)cc1	inconclusive: 35.5 µM [activator, single point]	
COc1ccc(C2NC(=O)NC(C)=C2[N+](=O)[O-])cc1 (stereo not drawn)	inactive	
CCOC(=O)c1ccc(NC(=O)c2cc3c(s2)CCC3)cc1	inconclusive: 0.0891 µM [activator, full curve, poor fit]	
C=CCNc1ncnc2c1[nH]c1ccc(C)cc12	inconclusive: 2 µM [activator, partial curve]	
CCOCCn1c(=NC(=O)c2cc(Cl)sc2Cl)sc2cc(S(N)(=O)=O)ccc21	inconclusive: 35.5 µM [inhibitor, single point]	
CC1CC(C)(C)n2c(O)c(N=NC(N)=S)c3cccc1c32 (stereo not drawn)	inconclusive: 0.158 µM [inhibitor, full curve, poor fit]	
O=C(Nc1nccs1)c1ccc(Br)cc1	active: 8.91 µM	

SMILES	Potency	activity change, negative = inhibition
COc1ccc(-c2nc(CN3CCC(c4ccccc4)CC3)c(C)o2)cc1OC	inconclusive: 14.1 µM [inhibitor, partial curve, poor fit]	
CCn1nc(C)c(NC(=O)CCSc2nc(-c3ccco3)cc(C(F)(F)F)n2)c1C	inconclusive: 35.5 µM [activator, partial curve]	
C/C(=N\NC(=S)NC(C)C)c1ccc(Cl)s1	active: 1.12 µM	
CNCCC(Oc1ccccc1OC)c1ccccc1 (stereo not drawn)	inactive	
N#Cc1c(NC(=S)NC(=O)Cc2cccs2)sc2c1CCCCC2	active: 5.01 µM	
Cc1ccc(N2CCN(CC(=O)Nc3c(C(=O)C4CC4)oc4ccccc34)CC2)cc1	inactive	
CS(=O)(=O)N(CC(O)CON=C1c2ccccc2-c2ccccc21)c1ccc(F)cc1 (stereo not drawn)	inconclusive: 31.6 µM [activator, single point]	
Cc1cc(C)cc(-n2nnn(C3C/C(=N/NC(N)=S)C4OCC3O4)c2=S)c1 (stereo not drawn)	inconclusive: 17.8 µM [inhibitor, single point]	
CC(=O)NCCc1nc2cc(NC(=O)c3ccccc3)ccc2n1C	inactive	
Cc1ccc(OCC(=O)N2CCN(c3nnc(-c4ccc(C)cc4)c4ccccc34)CC2)cc1	inconclusive: 35.5 µM [activator, single point]	
CC1(C)Cc2c(sc3[nH]c(=S)n(Cc4ccco4)c(=O)c23)CO1	active: 1 µM	
Cc1cc(C)cc(Oc2cc(NC(=O)c3cn(C)nc3C)cc([N+](=O)[O-])c2)c1	inconclusive: 31.6 µM [inhibitor, single point]	
Cc1cccc(-n2c(C)cc(/C=N\NC(=O)c3ccco3)c2C)c1	inconclusive: 35.5 µM [inhibitor, single point]	
O=C(NCCNc1ccnc2cc(Cl)ccc12)c1ccccc1F	inconclusive: 4.47 µM [activator, single point]	
O=C(NCCc1c[nH]c2ccccc12)[C@@H]1C[C@H]1[C@@H](NP(=O)(c1ccccc1)c1ccccc1)c1ccccc1	inconclusive: 11.2 µM [activator, partial curve, poor fit] and inconclusive: 12.6 µM [activator, partial curve]	
CCOc1ccc(S(=O)(=O)NCCC(=O)OC(C)C(=O)N2CCc3ccccc32)cc1 (stereo not drawn)	inconclusive: 20 µM [activator, partial curve]	
CC(C)CO/N=C1/C[C@@H](O)[C@@H](O)[C@@H]2[C@@H]3C(=O)N(C4CCCCC4)C(=O)[C@H]3CC[C@H]12		inactive: 12.5% [at 10 µM]
CCOC(=O)c1ccc(NC(=S)N2CCN(CCN=CC3=C(O)CC(C)(C)CC3=O)CC2)cc1	active: 12.6 µM	
Cc1ccc(Nc2nc3ccccc3o2)cc1F	inconclusive: 35.5 µM [inhibitor, single point]	
CCn1cc(C(=O)O)c(=O)c2cc(F)c(N3CCN(C(=S)NC(=O)c4ccc(Br)cc4)CC3)cc21	active: 0.631 µM	
Cc1cc(C(=O)NCCCn2ccnc2)sc1-c1ccccc1	inconclusive: 20 µM [activator, single point]	
O=C(C1=C[C@H](c2ccc(C(F)(F)F)cc2)C[C@H](OCc2ccc(CO)cc2)O1)N1CCN(Cc2ccccc2)CC1	inconclusive: 22.4 µM [activator, single point]	
